Laboratory results: PubChem BioAssay AID1159584 (Peter MacCallum Cancer Centre, 2016)
Assay: 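Knock-downs that harm CDH1-null cells more than parental MCF10A cells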 (primary screen). System: human MCF10A breast epithelial cells, parental and CDH1-null. Knock-down reagent: siRNA against human genes. Detection: 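ATP luminescence (CellTiter-Glo) viability per line relative to mean mock wells over all plates, and the ratio of CDH1-null to parental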. Direction: CDH1-null / parental viability ratio: higher = CDH1-null cells survive relatively better than parental; CDH1-null viability vs mock: higher = more viable CDH1-null cells; parental viability vs mock: higher = more viable parental cells.
The whole screen tested about 18,000 reagents; this is an unselected part. Not stated in the record: the amount of reagent, the time to read-out.

| target | CDH1-null / parental viability ratio | CDH1-null viability vs mock (fraction of mock) | parental viability vs mock (fraction of mock) |
| --- | --- | --- | --- |
| GCG | 1.28 | 0.68 | 0.53 |
| TRAPPC2 | 1.01 | 0.77 | 0.76 |
| DAPK2 | 0.9 | 0.86 | 0.96 |
| ATP8B1 | 1.03 | 1.07 | 1.04 |
| TOX4 | 1.08 | 0.7 | 0.65 |
| TTC33 | 0.97 | 0.68 | 0.7 |
| ST3GAL2 | 0.88 | 0.84 | 0.95 |
| FKBP15 | 1.05 | 0.99 | 0.94 |
| CCT4 | 1.03 | 0.78 | 0.76 |
| PRR23E | 1.18 | 0.59 | 0.5 |
| NXF3 | 1.32 | 0.5 | 0.38 |
| VPS39 | 1.12 | 0.66 | 0.59 |
| EIF2AK3 | 1.04 | 1 | 0.96 |
| CTNNBL1 | 0.81 | 0.72 | 0.89 |
| B4GALNT4 | 0.8 | 0.74 | 0.92 |
| COPG1 | 0.97 | 0.32 | 0.33 |
| MAGEB18 | 0.9 | 0.78 | 0.87 |
| NUDT17 | 1.57 | 1.26 | 0.8 |
| MEX3D | 0.94 | 0.89 | 0.95 |
| CCDC82 | 0.71 | 0.54 | 0.76 |
| LBH | 0.64 | 0.42 | 0.66 |
| IL18RAP | 1.02 | 0.85 | 0.83 |
| GPR160 | 0.81 | 0.76 | 0.94 |
| PCED1B | 1.24 | 0.88 | 0.71 |
| REDIC1 | 1.13 | 0.77 | 0.68 |
| NEFM | 0.94 | 0.76 | 0.81 |
| GPR101 | 0.99 | 0.69 | 0.7 |
| RSPRY1 | 0.92 | 0.92 | 1 |
| PLD2 | 0.95 | 0.84 | 0.88 |
| ARSH | 1.04 | 0.99 | 0.95 |
| METTL18 | 0.47 | 0.37 | 0.78 |
| VEGFA | 1.1 | 1.13 | 1.03 |
| VCP | 1 | 0.58 | 0.58 |
| MIXL1 | 0.85 | 0.68 | 0.8 |
| AKAP11 | 1 | 0.76 | 0.76 |
| ZNF445 | 0.63 | 0.38 | 0.6 |
| PANX3 | 1.14 | 1.19 | 1.04 |
| FRMD3 | 0.87 | 0.68 | 0.78 |
| RBM33 | 1.1 | 0.89 | 0.81 |
| FOXD2 | 0.84 | 0.81 | 0.96 |
| PRPF3 | 1.4 | 0.7 | 0.5 |
| CBR3 | 0.86 | 0.77 | 0.9 |
| CEP164 | 0.7 | 0.35 | 0.5 |
| ZNF550 | 1.76 | 1.04 | 0.59 |
| KRR1 | 0.83 | 0.81 | 0.98 |
| PRRT1 | 0.98 | 0.46 | 0.47 |

4 neighbouring entries already listed:
| target | CDH1-null / parental viability ratio | CDH1-null viability vs mock (fraction of mock) | parental viability vs mock (fraction of mock) |
| --- | --- | --- | --- |
| ATP8B1 | 1.03 | 1.07 | 1.04 |
| TOX4 | 1.08 | 0.7 | 0.65 |
| TTC33 | 0.97 | 0.68 | 0.7 |
| ST3GAL2 | 0.88 | 0.84 | 0.95 |
